According to the supplement of paper PMC4840960:
Counter-ions that a name gives are not always drawn. ± gives the standard deviation of the averaged measurements. This is one part of the list. Part of the spread comes from offsets between plates or batches.

Test system: E18 rat cortical neuron-glia co-culture
Assay: total nuclei (DAPI) / Olig2+ nuclei (ratio); higher = more depletion of OPC/OL lineage cells
Settings: treatment time: 8 days (DIV5-DIV13)

SMILES | total nuclei (1 µM) | total nuclei (5 µM)
Clc1ccc(COC(Cn2ccnc2)c2ccc(Cl)cc2Cl)cc1 (stereo unspecified) [Econazole] | 8.87 | 
NC[C@H]1CC[C@H](C(=O)Oc2ccc(CCC(=O)O)cc2)CC1 [Cetraxate] | 3.94 | 4.4
CCOC(=O)C1=C(C)NC(C)=C(C(=O)OCC)C1c1ccccc1/C=C/C(=O)OC(C)(C)C [Lacidipine] | 3.67 | 
Cc1sc(N)c(C(=O)c2cccc(C(F)(F)F)c2)c1C | 3.62 | 
Cc1ccc(C)c(OCCCC(C)(C)C(=O)O)c1 [Gemfibrozil] | 4.22 | 
CC(C)[N+]1(C)[C@@H]2CC[C@H]1C[C@@H](OC(=O)C(CO)c1ccccc1)C2 (stereo partly specified) [Ipratropium] | 3.65 | 2.8
O=C1CCc2ccc(OCCCCN3CCN(c4cccc(Cl)c4Cl)CC3)cc2N1 [Aripiprazole] | 4.03 | > 40
CC(C)[C@H]1CC[C@H](C(=O)N[C@H](Cc2ccccc2)C(=O)O)CC1 [Nateglinide] | 4.05 | 4.1
CC(=O)S[C@@H]1CC2=CC(=O)CC[C@]2(C)[C@H]2CC[C@@]3(C)[C@@H](CC[C@@]34CCC(=O)O4)[C@H]12 [Spironolactone] | 3.56 | 4.1
COc1cc(C)c(/C=C/C(C)=C/C=C/C(C)=C/C(=O)O)c(C)c1C [Acitretin] | 3.88 | 36.6
COc1ccc2[nH]c([S@@+]([O-])Cc3ncc(C)c(OC)c3C)nc2c1 [Esomeprazole] | 3.09 | 3.3
COc1cc(C(=O)NC2CCCNC2)cc(OC)c1OC (stereo unspecified) [Troxipide] | 3.7 | 4.2
C[C@]12CC[C@@H]3c4ccc(O)cc4CC[C@H]3[C@@H]1CC[C@@H]2O [Estradiol] | 4.56 | 4.5
Cc1cnc(C(=O)NCCc2ccc(S(=O)(=O)NC(=O)NC3CCCCC3)cc2)cn1 [Glipizide] | 2.9 | 3
N[C@@H]1CONC1=O [Cycloserine] | 4.16 ± 0.22 | 5
CC(=O)OCC(=O)[C@@]1(O)CC[C@H]2[C@@H]3CCC4=CC(=O)CC[C@]4(C)[C@H]3C(=O)C[C@@]21C [Cortisone acetate] | 3.18 | 3.5
CCCC1O[C@@H]2C[C@H]3[C@@H]4CCC5=CC(=O)C=C[C@]5(C)[C@H]4[C@@H](O)C[C@]3(C)[C@]2(C(=O)CO)O1 (stereo partly specified) [Budesonide] | 2.71 | 2.6
CC(=O)OCC(=O)NCCCOc1cccc(CN2CCCCC2)c1 [Roxatidine acetate] | 2.62 | 2.7
CN1CCC(=C2c3ccccc3C=Cc3ccccc32)CC1 [Cyproheptadine] | 2.9 | 3.2
Fc1ccc([C@@H]2CCNC[C@H]2COc2ccc3c(c2)OCO3)cc1 [Paroxetine] | 4.39 ± 2.9 | 7.25 ± 6
Nc1ncnc2c1ncn2[C@@H]1O[C@H](CO)[C@@H](O)[C@H]1O [Adenosine] | 3.68 | 4.2
CC1(C)S[C@@H]2[C@H](NC(=O)Cc3ccccc3)C(=O)N2[C@H]1C(=O)O [Penicillin G] | 2.78 | 2.6
CCOc1ccc2ccccc2c1C(=O)N[C@@H]1C(=O)N2[C@@H]1SC(C)(C)[C@@H]2C(=O)O [Nafcillin] | 2.63 | 2.7
CC1(C)C[C@@H]1C(=O)N/C(=C\CCCCSC[C@H](N)C(=O)O)C(=O)O [Cilastatin] | 2.9 | 2.9

Ordered by heavy-atom count (high to low): some entries from above.
SMILES | total nuclei (1 µM) | total nuclei (5 µM)
CCOC(=O)C1=C(C)NC(C)=C(C(=O)OCC)C1c1ccccc1/C=C/C(=O)OC(C)(C)C [Lacidipine] | 3.67 | 
Cc1cnc(C(=O)NCCc2ccc(S(=O)(=O)NC(=O)NC3CCCCC3)cc2)cn1 [Glipizide] | 2.9 | 3
O=C1CCc2ccc(OCCCCN3CCN(c4cccc(Cl)c4Cl)CC3)cc2N1 [Aripiprazole] | 4.03 | > 40
CC(=O)OCC(=O)[C@@]1(O)CC[C@H]2[C@@H]3CCC4=CC(=O)CC[C@]4(C)[C@H]3C(=O)C[C@@]21C [Cortisone acetate] | 3.18 | 3.5
CC(=O)OCC(=O)NCCCOc1cccc(CN2CCCCC2)c1 [Roxatidine acetate] | 2.62 | 2.7
COc1ccc2[nH]c([S@@+]([O-])Cc3ncc(C)c(OC)c3C)nc2c1 [Esomeprazole] | 3.09 | 3.3
CC(C)[C@H]1CC[C@H](C(=O)N[C@H](Cc2ccccc2)C(=O)O)CC1 [Nateglinide] | 4.05 | 4.1
NC[C@H]1CC[C@H](C(=O)Oc2ccc(CCC(=O)O)cc2)CC1 [Cetraxate] | 3.94 | 4.4
COc1cc(C(=O)NC2CCCNC2)cc(OC)c1OC (stereo unspecified) [Troxipide] | 3.7 | 4.2
C[C@]12CC[C@@H]3c4ccc(O)cc4CC[C@H]3[C@@H]1CC[C@@H]2O [Estradiol] | 4.56 | 4.5
Nc1ncnc2c1ncn2[C@@H]1O[C@H](CO)[C@@H](O)[C@H]1O [Adenosine] | 3.68 | 4.2
Cc1ccc(C)c(OCCCC(C)(C)C(=O)O)c1 [Gemfibrozil] | 4.22 | 
N[C@@H]1CONC1=O [Cycloserine] | 4.16 ± 0.22 | 5

Shown in CSV form: two of the compounds above.
SMILES,total nuclei (1 µM),total nuclei (5 µM)
Cc1sc(N)c(C(=O)c2cccc(C(F)(F)F)c2)c1C,3.62,
Cc1cnc(C(=O)NCCc2ccc(S(=O)(=O)NC(=O)NC3CCCCC3)cc2)cn1 [Glipizide],2.9,3

Later entries.

SMILES | total nuclei (1 µM) | total nuclei (5 µM)
CCCc1nc2c(C)cc(-c3nc4ccccc4n3C)cc2n1Cc1ccc(-c2ccccc2C(=O)O)cc1 [Telmisartan] | 3.2 | 4.5
COc1ccc2[nH]c([S+]([O-])Cc3ncc(C)c(OC)c3C)nc2c1 (stereo unspecified) [Omeprazole] | 2.82 | 2.9
Cn1c(NCCN(CCO)CCCc2ccc([N+](=O)[O-])cc2)cc(=O)n(C)c1=O [Nifekalant] | 4.33 | 3.8
CCN(CC)CCNC(=O)c1ccc(N)cc1 [Procainamide] | 2.7 | 2.8
CC(=O)[C@@]1(O)CC[C@H]2[C@@H]3C[C@H](C)C4=CC(=O)C=C[C@]4(C)[C@@]3(F)[C@@H](O)C[C@@]21C [Fluorometholone] | 4.3 | 4.9
O=C(NCCO[N+](=O)[O-])c1cccnc1 [Nicorandil] | 2.91 | 2.9
Cc1noc(NS(=O)(=O)c2ccc(N)cc2)c1C [Sulfisoxazole] | 2.65 | 2.8
CCCN(CCC)S(=O)(=O)c1ccc(C(=O)O)cc1 [Probenecid] | 2.69 | 2.7
O=C(O)CCCc1ccccc1 [4-Phenylbutyric acid] | 3.9 | 3.8
CC=CC(=O)N(CC)c1ccccc1C [Crotamiton] | 3.8 | > 40
CCCc1c(OCCCCc2nnn[nH]2)ccc(C(C)=O)c1O | 3.6 | 3.6
CN(C)[C@@H]1C(O)=C(C(N)=O)C(=O)[C@@]2(O)C(O)=C3C(=O)c4c(O)ccc(Cl)c4[C@@H](O)[C@H]3C[C@@H]12 [Demeclocycline] | 2.87 | 3.1
CC(C)c1ccc2c(c1)c(SC(C)(C)C)c(CC(C)(C)C(=O)O)n2Cc1ccc(Cl)cc1 | 2.73 | 39.9
CN1CCc2cc(Cl)c(O)cc2C(c2ccccc2)C1 (stereo unspecified) | 3.74 | 4.1
C[C@H]1[C@H](OC(=O)CCC(=O)O)O[C@@H]2O[C@@]3(C)CC[C@H]4[C@H](C)CC[C@@H]1[C@@]24OO3 [Artesunate] | 4.12 | 13.1
NCc1ccc(S(N)(=O)=O)cc1 [Mafenide] | 4.6 | 4.8
CC(C[N+](C)(C)C)OC(N)=O (stereo unspecified) [Bethanechol] | 4.21 | 4.2
COc1cc2nc(N3CCN(C(=O)c4ccco4)CC3)nc(N)c2cc1OC [Prazosin] | 3.3 | 5.9
N[C@@H](C(=O)N[C@@H]1C(=O)N2C(C(=O)O)=C(CSc3c[nH]nn3)CS[C@H]12)c1ccc(O)cc1 [Cefatrizine] | 4.4 | 4.5
CN1C2CCCC1CC(NC(=O)c1nn(C)c3ccccc13)C2 (stereo unspecified) [Granisetron] | 2.9 | 2.8
CC1CCN(CCCC(=O)c2ccc(F)cc2)CC1 [Melperone hydrochloride] | 3.59 | 4.4
N=C(N)N [Guanidine] | 2.88 | 2.8
CC(C)NCC(O)c1ccc(O)c(O)c1 (stereo unspecified) [Isoproterenol] | 4.48 | 4.6
CO[C@H]1/C=C/O[C@@]2(C)Oc3c(C)c(O)c4c(O)c(c5c(nc6cc(C)ccn65)c4c3C2=O)NC(=O)/C(C)=C\C=C\[C@H](C)[C@H](O)[C@@H](C)[C@@H](O)[C@@H](C)[C@H](OC(C)=O)[C@@H]1C [Rifaximin] | 2.79 | 2.9

SMILES | total nuclei (1 µM) | total nuclei (5 µM)
CC(=O)NCCCCCCNC(C)=O [Hexamethylene bisacetamide] | 3.14 | 3.4
C[C@H]1O[C@@H](O[C@H]2[C@@H](O)C[C@H](O[C@H]3[C@@H](O)C[C@H](O[C@H]4CC[C@@]5(C)[C@H](CC[C@@H]6[C@@H]5C[C@@H](O)[C@]5(C)[C@@H](C7=CC(=O)OC7)CC[C@]65O)C4)O[C@@H]3C)O[C@@H]2C)C[C@H](O)[C@@H]1O [Digoxin] | 3.89 | 2.7
COc1ccccc1N1CCN(CC(O)COc2cccc3ccccc23)CC1 (stereo unspecified) [Naftopidil] | 4.8 | 8.8
COc1ccccc1OCC(O)COC(N)=O (stereo unspecified) [Methocarbamol] | 4.03 | 3.5
CCc1c(C)[nH]c2c1C(=O)C(CN1CCOCC1)CC2 (stereo unspecified) [Molindone] | 2.61 | 2.5
CC(C(=O)O)c1cccc(C(=O)c2ccccc2)c1 (stereo unspecified) [Ketoprofen] | 4.1 | 4
O=C1CCC(N2C(=O)c3ccccc3C2=O)C(=O)N1 (stereo unspecified) [Thalidomide] | 2.72 | 2.6
CCS(=O)(=O)CCn1c([N+](=O)[O-])cnc1C [Tinidazole] | 2.8 | 2.8
COc1ccc(Cl)cc1C(=O)NCCc1ccc(S(=O)(=O)NC(=O)NC2CCCCC2)cc1 [Glyburide] | 2.85 | 2.8
O=C(c1ccc(OCCN2CCCCC2)cc1)c1c(-c2ccc(O)cc2)sc2cc(O)ccc12 [Raloxifene] | 2.45 | 35
C=C(CC)C(=O)c1ccc(OCC(=O)O)c(Cl)c1Cl [Ethacrynic Acid] | 20 | > 40
Clc1ccc2c(c1)CCc1cccnc1C2=C1CCNCC1 [Desloratadine] | 3.5 | 9.9
O=C(CCCN1CC=C(n2c(=O)[nH]c3ccccc32)CC1)c1ccc(F)cc1 [Droperidol] | 2.62 | 2.7
O=C(O)COCCN1CCN(C(c2ccccc2)c2ccc(Cl)cc2)CC1 (stereo unspecified) [Cetirizine] | 2.7 | 2.8
CC1(C)O[C@@H]2C[C@H]3[C@@H]4CCC5=CC(=O)C=C[C@]5(C)[C@@]4(F)[C@@H](O)C[C@]3(C)[C@]2(C(=O)CO)O1 [Azmacort] | 3.67 | > 40
O=C1c2c(O)cc(O)cc2O[C@H](c2ccc(O)c(O)c2)[C@H]1O [Distylin] | 4.67 | 4.2
CN[C@@H]1[C@H](O)[C@H](NC)[C@H]2O[C@@]3(O)C(=O)C[C@@H](C)O[C@H]3O[C@@H]2[C@H]1O [Spectinomycin] | 2.77 | 2.8
COc1ccnc(C[S+]([O-])c2nc3cc(OC(F)F)ccc3[nH]2)c1OC (stereo unspecified) [Pantoprazole] | 2.88 | 3
CCOC(=O)c1ccc(OC(=O)CCCCCNC(=N)N)cc1 [Gabexate] | 3.38 | 3.8
CC(C)(C)NCC(O)c1cc(O)cc(O)c1 (stereo unspecified) [Terbutaline] | 3.9 | 4
C[C@H]1c2cccc(O)c2C(=O)C2=C(O)[C@]3(O)C(=O)C(C(N)=O)=C(O)[C@@H](N(C)C)[C@@H]3[C@@H](O)[C@@H]21 [Doxycycline] | 2.29 | 2.6
NC(N)=Nc1nc(CSCC/C(N)=N/S(N)(=O)=O)cs1 [Famotidine] | 4.9 | 4.8
